pIC50: −log10 of the molar value. Where a name gives a salt, the structure may show the parent alone.
Assays:
MCF-7 cells = assay: CCK-8 anti-proliferative assay, MCF-7; type: cell-based; conditions: Homo sapiens, MCF7, 48 h, read-out: IC50 MCF-7, MCF-7, CCK-8, 48 h
In short: (§1)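 Log-phase cells in DMEM were plated at 1 × 10^4 per well and allowed 12 h at 37 °C and 5% CO2. Test compounds (0–80 μM) were added for 48 h. Medium was replaced with medium containing 10% CCK-8 for 4 h, and A450 was read. Percent inhibition was calculated against the untreated control and doxorubicin (positive control), and IC50 was obtained by curve fitting.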

HeLa cells = assay: CCK-8 anti-proliferative assay, HeLa; type: cell-based; conditions: Homo sapiens, 48 h, read-out: IC50 HeLa, HeLa, CCK-8, 48 h
In short: as §1

- pIC50 (MCF-7 cells): 5.96
- pIC50 (HeLa cells): 5.46
SMILES: COc1cccc2c1C(=O)c1c(O)c3c(c(O)c1C2=O)C[C@@](O)(C(=O)CO)C[C@@H]3O[C@H]1C[C@H](N)[C@H](O)[C@H](C)O1 [Doxorubicin hydrochloride, doxorubicin hydrochloride, reference compound]

Reference: publication PMC9072715 (RSC Advances, 2019)
